Measured values published in PubChem BioAssay AID2685 (National Center for Advancing Translational Sciences (NCATS), 2010).
Several values for one entry are separate records, joined by “and”; a condition that tells them apart may be missing. Equal values may be shown once. The list shows a part of the results. Further columns of the screen follow, without active or inactive calls. Most of these compounds were active or inconclusive in the main read-out, so they are no random draw. The note in brackets gives the kind of curve behind each potency; many fits are weak.

Experiment: qHTS Assay for Lipid Storage Modulators in Drosophila S3 Cells;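 on cell number change: cells counted by Cell Tracker Red CMTPX staining in the red channel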
Conditions: BODIPY lipid droplet fluorescence, 18-24 h; for cell number change: measured here: cell count max response, cells fed with added oleic acid
Outline: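 Drosophila S3 cells got compounds at several concentrations plus oleic acid (400 uM solution). Laser-scanning cytometry with 488 nm excitation read lipid droplets at 500-530 nm and cells at 575-640 nm. Percent activity was relative to 20 uM Triacsin C.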

[1] = measured here: cell number channel AC50, cells fed with added oleic acid
[2] = measured here: lipid fluorescence (Fed channel) AC50, cells fed with added oleic acid

| Compound | cell number change | AC50 [1] | AC50 [2] |
| --- | --- | --- | --- |
| O=c1c2ccccc2n2nnnc2n1-c1ccccc1 | -15.6% | 0.00731 µM [falling, full curve, poor fit] | – |
| O=C(Cc1cccc(C(F)(F)F)c1)Nc1ccc(S(=O)(=O)N2CCCC2)cc1 | -61.2% | 14.6 µM [falling, partial curve] | – |
| CCOC(=O)CC(=O)CSc1nc2c(cc1C#N)CCCCCC2 | 22% | 0.0103 µM [rising, full curve, poor fit] | – |
| CCOC(=O)C1CCCCN1Cc1ccccc1C(F)(F)F (centres undefined) | 34.5% | 29.1 µM [rising, single point] | – |
| Cc1ccc(C(CC(=O)N2CCOCC2)c2ccco2)cc1 (centres undefined) | -29.2% | – | 18.4 µM [falling, partial curve] |
| c1ccc(-n2cc(CN3CCCC3)c(-c3ccc4c(c3)OCO4)n2)cc1 | 0.393% | – | – |
| Cc1cc2c(s1)c1cnn(Cc3ccccc3F)c(=O)c1n2C | 43.8% and -9.19% | 11.6 µM [rising, partial curve, poor fit] | 25.9 µM [rising, partial curve] and 731 nM [rising, full curve, poor fit] |
| Cc1nnnn1/C(=C\c1ccccc1)C(=O)OCC(=O)NC1CCCCC1 | 1.11% | 0.731 µM [falling, full curve, poor fit] | 5.8 µM [falling, full curve] |
| Oc1ccccc1CNCCCNCc1ccccc1O | – | – | 1.16 µM [falling, single point] |
| COCC(=O)Nc1ccccc1Br | 12.2% | 4.61 µM [falling, single point] | – |
| CC1(C)SC(=S)N(/N=C/c2ccc(O)cc2)C1N(O)C(=O)Nc1ccc([N+](=O)[O-])cc1 (centres undefined) | -5.91% | – | 11.6 µM [rising, partial curve, poor fit] |
| O=C(CCCCCNC(=O)N1CCn2c1nc1ccccc12)NCCc1ccccc1 | 17.7% | – | 2.91 µM [rising, full curve] |
| Cc1nnc(NN2CCOCC2)[nH]c1=O | -37% | 0.00517 µM [falling, full curve, poor fit] | 0.0058 µM [falling, full curve, poor fit] |
| Cc1nnc(SCC(=O)Nc2sc3c(c2C(N)=O)CCC(C)C3)[nH]c1=O (centres undefined) | -19.3% | – | 4.11 µM [rising, single point] |
| COc1ccc(OC)c(/C=N/NC(=O)c2cc[n+](CC(=O)c3ccccc3)cc2)c1 | -1.62% | – | 0.58 µM [rising, single point] |
| O=C(Nc1ccccc1Br)c1c(F)cccc1Cl | 4.6% | – | – |
| O=C(COC(=O)c1ccc(O)cc1)Nc1cccc(S(=O)(=O)N2CCCCC2)c1 | -16.4% | – | – |
| O=C(Nc1cc(F)ccc1F)C1CCCN1S(=O)(=O)c1cccc2nsnc12 (centres undefined) | 8.75% | – | 29.1 µM [rising, single point] |
| Cc1nc(NC(=O)c2ccc(Cl)cc2)sc1Cc1ccc2c(c1)OCO2 | -36.3% | 9.2 µM [falling, partial curve, poor fit] | 2.91 µM [rising, partial curve] |
| Cc1ccc2cccc(Oc3cnccn3)c2n1 | 29.6% | – | 10.3 µM [rising, partial curve, poor fit] |
| O=C(NCc1ccc(F)cc1)c1c2c(nc3ccccc13)CCC2 | 38.6% | 0.0731 µM [rising, full curve, poor fit] | – |

| Compound | cell number change | AC50 [1] | AC50 [2] |
| --- | --- | --- | --- |
| COc1ccc(C(=O)c2cc([N+](=O)[O-])ccc2N2CCCC2)cc1 | 1.33% | – | – |
| COc1cc(Cl)ccc1OCc1cc(C(=O)N2C[C@]3(C)C[C@H]2CC(C)(C)C3)no1 | 3.91% | – | – |
| CCOC(=O)C1=NNC2C(=O)N(C3CCCCC3)C(=O)C12 (centres undefined) | 2.79% | – | – |
| COc1ccc(OC)c(Cc2nnc(CCC(=O)NC3CCCCCCC3)o2)c1 | -32.3% | 23.1 µM [falling, single point] | 2.91 µM [falling, full curve, poor fit] |
| CC1(C)NS(=O)(=O)Oc2ccccc21 | 14.6% | – | – |
| CC(NC(=S)Nc1ccc(OC(F)F)c(Cl)c1)C(C)(C)C (centres undefined) | -62.4% | 18.4 µM [falling, single point] | 29.1 µM [falling, partial curve] |
| COc1cccc(CNCCc2c[nH]c3ccccc23)c1OCc1ccccc1F | -78.7% | 11.6 µM [falling, partial curve] | 7.31 µM [falling, partial curve, poor fit] |
| CCc1ccc(-c2nc(SCC(=O)c3c(N)n(C4CC4)c(=O)[nH]c3=O)n[nH]2)cc1 | -0.834% | – | – |
| CC(/C=N/n1c(-c2ccc(C)cc2)n[nH]c1=S)=C\c1ccco1 | -41% | 13 µM [falling, partial curve] | – |
| Cc1ccc(C(=O)OCC(=O)Nc2cccc(S(=O)(=O)N3CCOCC3)c2)o1 | 17% | – | – |
| CCOc1ccc(NC(=O)CCN2C(=O)C3CCCCC3C2=O)cc1OCC (centres undefined) | 24.6% | – | 5.17 µM [rising, partial curve] |
| Cc1cccc(C)c1NC(=O)NC1(C(=O)N2CCCC2)CCCCC1 | 11.5% | – | 29.1 µM [falling, single point] |
| CCOc1ccccc1NC(=O)CSc1ccc([N+](=O)[O-])cc1 | – | 5.8 µM [rising, single point] | – |
| CC(=O)CSc1ccc(C(=O)O)cn1 | -20.9% | – | 0.0058 µM [falling, full curve, poor fit] |
| COc1ccc(NS(=O)(=O)c2cccc3cccnc23)cc1OC | -4.84% | – | 6.51 µM [rising, full curve] |
| O=S(=O)(Nc1ccc(-c2ccc(N3CCOCC3)nn2)cc1)c1ccc(Cl)c(Cl)c1 | 36.5% | 8.2 µM [rising, partial curve] | – |
| Cc1cccc(S(=O)Cc2ccc(C(=O)N3CCN(C(=O)c4ccco4)CC3)o2)c1 (centres undefined) | -17.7% | – | 18.4 µM [rising, single point] |
| N#CC1=C(S)N(c2ccccc2)C(c2ccc(-c3cc(Cl)ccc3Cl)o2)NC1=O (centres undefined) | -15.6% | – | 0.82 µM [rising, single point] |
| CN(Cc1ccccc1)C(=O)c1[nH]cnc1C(=O)NCC(=O)OC(C)(C)C | -5.99% | – | 16.4 µM [falling, partial curve, poor fit] |
| CC1(C)CC(=O)C2=C(C1)NC1=C(C(=O)c3ccccc31)C2c1cccnc1 (centres undefined) | 13.8% | – | 7.31 µM [rising, partial curve] |
| NC(=O)c1ccccc1NC(=O)CCn1c(=S)oc2ccccc21 | 11.3% | – | – |

| Compound | cell number change | AC50 [1] | AC50 [2] |
| --- | --- | --- | --- |
| O=C(CN1C(=O)S/C(=C\c2ccc(-c3cc(C(=O)O)ccc3Cl)o2)C1=O)Nc1ccc2c(c1)OCO2 | 15.6% | – | 8.2 µM [falling, partial curve] |
| COC(=O)c1ccc(NC(=O)CN(Cc2ccc(Cl)cc2)S(C)(=O)=O)cc1 | 73.2% | 20.6 µM [rising, single point] | – |
| Cc1cc(F)ccc1S(=O)(=O)N1CCCCC1CCNC(=O)C(=O)NCCN1CCOCC1 (centres undefined) | -30.1% | 20.6 µM [falling, single point] | 0.146 µM [rising, full curve, poor fit] |
| COc1ncc(C2=CC(=O)CC(C)(C)C2)cn1 | -1.68% | – | 1.03 µM [rising, single point] |
| COc1cccc(S(=O)(=O)NCC(=O)Nc2ccc(C(C)(C)C)cc2)c1 | -33.2% | 23.1 µM [falling, single point] | 4.11 µM [rising, single point] |
| CCOC(=O)C(CC(=O)c1ccccc1)CC(=O)c1ccccc1 | 30.3% | 0.0058 µM [rising, full curve, poor fit] | 0.116 µM [rising, full curve, poor fit] |
| CCOC(=O)C1CCc2nc3ccccc3c(=O)n21 (centres undefined) | -1.42% | – | 0.00461 µM [rising, full curve, poor fit] |
| CCCOc1ccc(C(=O)Nc2cc(-c3nn4c(C)nnc4s3)ccc2C)cc1 | -2.66% | – | – |
| Cc1nc(C(=O)N2CCCC(N3CCN(c4ccccc4C)CC3)C2)cs1 (centres undefined) | 13.2% | – | – |
| OCCN(CCO)Cc1csc2ccccc12 | – | 2.31 µM [rising, single point] | 0.058 µM [falling, full curve, poor fit] |
| CCOc1ccc(N(CC(=O)NCc2ccc(F)cc2)C(=O)c2snc(C(N)=O)c2N)cc1 | – | – | 0.13 µM [rising, full curve, poor fit] |
| Cc1nc2ccccc2c(=O)n1NCc1cc(Br)cs1 | 8.22% | – | 1.64 µM [rising, full curve] |
| O=C(c1ccc(F)cc1)c1ccc(CN2C(=O)c3ccccc3C2=O)o1 | 72.3% | 18.4 µM [rising, single point] | – |
| Cn1c(NC(=O)c2ccc(Cl)cc2Cl)cc(=O)n(C)c1=O | 3.13% | – | – |
| O=C(O)c1ccc(/C=N/NC(=S)NC2CCCCC2)cc1 | -131% | – | – |
| Cn1c(=O)[nH]c(=O)c2c1nc(SCCCO)n2CCCc1ccccc1 | 12.6% | – | – |
| CC(C)C(NS(=O)(=O)c1ccccc1F)C(=O)OCC(=O)NCc1ccco1 (centres undefined) | – | – | 0.13 µM [falling, full curve, poor fit] |
| O=C(c1cn(-c2ccccc2)nc1-c1cccnc1)N1CCCC(C(F)(F)F)C1 (centres undefined) | – | 0.291 µM [rising, partial curve, poor fit] | 6.51 µM [rising, partial curve, poor fit] |
| CCN1CCN(CC(=O)Nc2sc3c(c2C#N)CCC(C)C3)CC1 (centres undefined) | -10.8% | – | 29.1 µM [falling, single point] |
| COc1ccc(NC2=C(C(C)=O)C(c3ccc4c(c3)OCO4)C(C(C)=O)C(C)(O)C2)cc1 (centres undefined) | 16.8% | – | – |

Four records picked at random from the list so far, as already listed:

| Compound | cell number change | AC50 [1] | AC50 [2] |
| --- | --- | --- | --- |
| O=C(Cc1cccc(C(F)(F)F)c1)Nc1ccc(S(=O)(=O)N2CCCC2)cc1 | -61.2% | 14.6 µM [falling, partial curve] | – |
| CCOc1ccccc1NC(=O)CSc1ccc([N+](=O)[O-])cc1 | – | 5.8 µM [rising, single point] | – |
| CC(NC(=S)Nc1ccc(OC(F)F)c(Cl)c1)C(C)(C)C (centres undefined) | -62.4% | 18.4 µM [falling, single point] | 29.1 µM [falling, partial curve] |
| CCCOc1ccc(C(=O)Nc2cc(-c3nn4c(C)nnc4s3)ccc2C)cc1 | -2.66% | – | – |
